Here are results for four molecules from article PMC10813223.

Protein sequences, listed by entry. Tags and fused reporters are not part of them. Lines headed by an entry give the natural chain unless they say otherwise; changes in a name come on top.
UniProt P35579: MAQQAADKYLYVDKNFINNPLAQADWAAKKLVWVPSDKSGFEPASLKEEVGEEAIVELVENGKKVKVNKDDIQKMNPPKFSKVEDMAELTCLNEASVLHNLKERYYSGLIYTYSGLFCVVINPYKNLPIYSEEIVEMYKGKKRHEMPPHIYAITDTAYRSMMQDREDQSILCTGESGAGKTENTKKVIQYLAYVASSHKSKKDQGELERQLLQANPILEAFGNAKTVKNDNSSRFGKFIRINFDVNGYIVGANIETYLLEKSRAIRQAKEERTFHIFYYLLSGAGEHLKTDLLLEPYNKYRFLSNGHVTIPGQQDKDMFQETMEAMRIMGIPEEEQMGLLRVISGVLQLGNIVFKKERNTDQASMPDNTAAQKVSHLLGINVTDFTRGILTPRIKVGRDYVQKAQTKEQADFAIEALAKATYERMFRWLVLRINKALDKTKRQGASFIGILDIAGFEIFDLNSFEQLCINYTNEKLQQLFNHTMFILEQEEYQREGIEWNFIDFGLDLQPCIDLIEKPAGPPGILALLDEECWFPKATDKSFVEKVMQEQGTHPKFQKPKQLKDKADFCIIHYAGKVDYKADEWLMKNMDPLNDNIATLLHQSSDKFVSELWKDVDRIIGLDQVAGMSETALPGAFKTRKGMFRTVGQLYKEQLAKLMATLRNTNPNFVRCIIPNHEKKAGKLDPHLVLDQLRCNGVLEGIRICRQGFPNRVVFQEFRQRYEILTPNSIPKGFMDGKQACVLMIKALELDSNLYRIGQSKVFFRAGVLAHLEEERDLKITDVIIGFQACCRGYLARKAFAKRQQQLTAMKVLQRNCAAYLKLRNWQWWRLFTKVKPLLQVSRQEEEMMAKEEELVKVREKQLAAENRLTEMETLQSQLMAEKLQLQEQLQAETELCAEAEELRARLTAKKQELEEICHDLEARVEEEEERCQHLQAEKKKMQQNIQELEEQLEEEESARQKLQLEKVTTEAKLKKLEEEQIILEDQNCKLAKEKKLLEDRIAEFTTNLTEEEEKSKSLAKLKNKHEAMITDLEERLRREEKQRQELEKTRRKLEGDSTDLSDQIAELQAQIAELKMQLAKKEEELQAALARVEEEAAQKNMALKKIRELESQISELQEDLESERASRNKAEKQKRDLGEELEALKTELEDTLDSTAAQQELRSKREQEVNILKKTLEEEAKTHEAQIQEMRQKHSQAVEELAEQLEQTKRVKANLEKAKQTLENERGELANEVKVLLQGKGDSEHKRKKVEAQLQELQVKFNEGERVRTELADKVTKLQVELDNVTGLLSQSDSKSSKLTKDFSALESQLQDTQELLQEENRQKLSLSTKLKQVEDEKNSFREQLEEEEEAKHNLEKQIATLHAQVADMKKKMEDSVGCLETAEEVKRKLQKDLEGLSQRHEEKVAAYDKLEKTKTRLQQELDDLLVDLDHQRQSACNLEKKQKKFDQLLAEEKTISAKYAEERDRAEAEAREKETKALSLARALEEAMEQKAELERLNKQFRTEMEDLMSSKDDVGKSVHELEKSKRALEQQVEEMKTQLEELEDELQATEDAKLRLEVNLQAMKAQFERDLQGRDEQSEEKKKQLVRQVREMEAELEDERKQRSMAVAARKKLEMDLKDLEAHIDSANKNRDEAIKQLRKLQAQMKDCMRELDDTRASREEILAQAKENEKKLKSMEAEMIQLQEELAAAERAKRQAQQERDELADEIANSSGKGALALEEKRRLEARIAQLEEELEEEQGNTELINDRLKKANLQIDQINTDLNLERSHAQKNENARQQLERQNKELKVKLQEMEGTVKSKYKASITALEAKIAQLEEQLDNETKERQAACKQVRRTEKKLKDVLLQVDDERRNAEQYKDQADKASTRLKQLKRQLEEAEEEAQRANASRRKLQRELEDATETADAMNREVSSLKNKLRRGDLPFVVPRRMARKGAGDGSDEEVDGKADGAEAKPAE
UniProt P61586: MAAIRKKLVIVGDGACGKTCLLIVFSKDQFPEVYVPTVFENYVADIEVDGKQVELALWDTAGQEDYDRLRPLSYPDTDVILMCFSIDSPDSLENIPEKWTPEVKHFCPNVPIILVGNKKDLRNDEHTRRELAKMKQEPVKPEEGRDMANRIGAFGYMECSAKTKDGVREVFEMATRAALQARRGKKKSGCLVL

The target in assay [1] is T1, phospholipase D1 (PLD1) (human (endogenous in A549)) (UniProt Q13393).
T1 sequence: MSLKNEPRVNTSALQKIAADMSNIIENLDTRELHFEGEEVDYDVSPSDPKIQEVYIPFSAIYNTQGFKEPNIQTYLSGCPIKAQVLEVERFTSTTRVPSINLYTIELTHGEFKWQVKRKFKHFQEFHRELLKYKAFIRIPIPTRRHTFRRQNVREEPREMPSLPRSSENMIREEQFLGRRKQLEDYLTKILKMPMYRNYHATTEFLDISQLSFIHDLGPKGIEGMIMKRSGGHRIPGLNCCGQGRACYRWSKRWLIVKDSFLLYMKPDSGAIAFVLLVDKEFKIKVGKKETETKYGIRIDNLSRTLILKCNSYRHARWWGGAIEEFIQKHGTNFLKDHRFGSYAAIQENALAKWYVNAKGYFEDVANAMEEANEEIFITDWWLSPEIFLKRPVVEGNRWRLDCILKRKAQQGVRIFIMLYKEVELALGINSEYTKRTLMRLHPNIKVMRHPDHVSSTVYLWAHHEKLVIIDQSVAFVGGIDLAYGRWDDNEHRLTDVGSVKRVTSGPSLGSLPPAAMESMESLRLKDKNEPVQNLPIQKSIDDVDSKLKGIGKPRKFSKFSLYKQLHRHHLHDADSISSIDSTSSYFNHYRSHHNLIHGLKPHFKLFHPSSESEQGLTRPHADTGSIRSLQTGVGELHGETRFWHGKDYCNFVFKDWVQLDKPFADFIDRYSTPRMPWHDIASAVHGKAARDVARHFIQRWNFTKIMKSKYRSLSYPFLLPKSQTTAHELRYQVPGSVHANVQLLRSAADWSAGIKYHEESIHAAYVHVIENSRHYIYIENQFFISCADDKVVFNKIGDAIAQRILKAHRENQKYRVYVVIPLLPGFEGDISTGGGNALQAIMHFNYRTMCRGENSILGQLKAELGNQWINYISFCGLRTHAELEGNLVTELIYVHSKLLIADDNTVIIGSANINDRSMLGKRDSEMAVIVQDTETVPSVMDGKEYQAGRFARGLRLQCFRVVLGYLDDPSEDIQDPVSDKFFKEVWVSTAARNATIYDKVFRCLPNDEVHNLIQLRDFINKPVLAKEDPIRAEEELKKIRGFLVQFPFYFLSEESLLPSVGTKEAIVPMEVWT
The experiment in a line: co-IP; endogenous proteins; antibody to PLD1, p-Y42 RhoA or MYH9 with protein A/G-agarose beads; lysates of A549 cells untreated or stimulated with LPS (5 ug/mL, 24 h); 20 mM Tris pH 7.4, 120 mM NaCl, 1 mM MgCl2, 1% Nonidet P-40; antibody overnight at 4 C; immunoblot.

In assay [2] the target is MYH9 (Myosin IIA, non-muscle myosin IIA) (human (endogenous in A549)) (UniProt P35579). The description is as above.
Assay [3] deals with p-Tyr42 RhoA (human (endogenous in A549)) (UniProt P61586). The assay is described as above.
The next assay deals with HA-RhoA WT (UniProt P61586). The experiment in a line: co-IP; A549 cells transfected with HA-RhoA WT, Y42E or Y42F for 24 h, serum-depleted 8 h, stimulated by LPS for 24 h; immunoprecipitation using the HA probe; PLD1 detected by Western blotting. Background: A western blot detects proteins with antibodies after separation by electrophoresis.
In another assay the target is HA-RhoA Y42E (UniProt P61586). The assay is described as above.

These are yes or no findings as the source states them, for the method shown. In cells and extracts the contact can be indirect. Some results given as binding are weak or reduced against the parent protein; the word gives no strength.

As for RhoA (from UniProt P61586 1-193), the binding entry in assay [1] is “binds”.

“MYH9 (Myosin IIA, non-muscle myosin IIA) (from UniProt P35579 1-1960)”: the binding entry in assay [1] is listed as “binds”.

In the case of “p-Tyr42 RhoA (from UniProt P61586 1-193)”, the binding entry in assay [1] is listed as “binds”.

B1: phospholipase D1 (PLD1) (enzyme, UniProt Q13393 1-1074)
chain: T1 sequence
With B1, the binding entry (in assay [2]; in assay [3]; with HA-RhoA WT; in the assay with HA-RhoA Y42E) was “binds” each time.
